# According to PubChem BioAssay AID1487 (National Center for Advancing Translational Sciences (NCATS), 2009):
# Some of the results follow. Shown are side measurements of this screen, not its main read-out; they come without a call. The list favours compounds with an active or inconclusive main result. Potencies come from curve fits of mixed quality, noted in brackets.
# Assay: qHTS Assay for Modulators of Lamin A Splicing
# Details: HeLa LMNA splicing GFP/RFP minigene ratio, 48 h
# Outline: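 S3 HeLa stable clones carrying a lamin A-EGFP splicing minigene plus DsRed2 were seeded at 600 cells/well in Opti-MEM with 2% FBS, pin-dosed and incubated 48 h at 37°C. Acumen cytometry (488 nm) gave the GFP/RFP total-intensity ratio.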
# [1] = measured here: GFP splicing reporter channel
# [2] = measured here: RFP viability control channel
Compound,AC50 [1],AC50 [2]
COc1ccc(CCNC(=O)c2ccc3c(c2)ncn3-c2ccc(C(C)C)cc2)cc1OC,"12.6 µM [falling, partial curve, poor fit]","22.4 µM [falling, single point]"
CCN(CC)N=Nc1[nH]nc2nc(C)cc(C)c12,"10 µM [falling, partial curve, poor fit]",
CC(=O)Nc1ccccc1N(CC(O)Cn1c2ccccc2c2ccccc21)S(=O)(=O)c1ccc(C)cc1 (stereo unspecified),"22.4 µM [rising, single point]","25.1 µM [rising, single point]"
CNc1ccc(Br)cc(C(=O)/C=C/c2cccc(OC)c2OC)c1=O,"28.2 µM [rising, single point]","35.5 µM [rising, single point]"
O=C(Nc1ccc2snnc2c1)N1CCN(c2ccccc2)CC1,"14.1 µM [rising, single point]","20 µM [rising, single point]"
COc1ccc(/C(O)=C/Sc2nnc(Cc3ccccc3)o2)cc1,,"12.6 µM [rising, single point]"
CCc1ccc(N(CC)c2ncnc3nc[nH]c23)cc1,,"14.1 µM [rising, single point]"
COC(=O)c1sc2nc(SCc3cccc(Cl)c3)n(N)c(=O)c2c1C,,"3.16 µM [falling, full curve, poor fit]"
COc1cc(C2NC(=O)C(C#N)=C(Nc3cccc(C)c3)S2)ccc1O (stereo unspecified),,"2.82 µM [falling, partial curve]"
CCC(=O)Nc1ccccc1C(=O)N1CCN(Cc2ccccc2)CC1,,"0.708 µM [falling, full curve, poor fit]"
CS(=O)(=O)Nc1cccc(-c2nc(NCc3cccs3)c3ccccc3n2)c1,"35.5 µM [falling, single point]","35.5 µM [falling, single point]"
COC(=O)c1sc(N)c(C(=O)OC)c1COC(=O)CCNS(=O)(=O)c1ccc(C)cc1,"15.8 µM [rising, single point]","14.1 µM [rising, single point]"
Cc1cc(C(=O)CSc2nnc(-c3ccc4c(c3)OCO4)o2)c(C)n1-c1ccc(F)cc1,"0.0224 µM [falling, full curve, poor fit]","0.282 µM [falling, partial curve]"
CC(C)N(c1ccccc1)c1ccc(NC(=O)CCl)cc1,"0.00447 µM [falling, full curve, poor fit]","35.5 µM [falling, single point]"
CNc1ncnc2ccc(-c3cccc(OC)c3)cc12,"11.2 µM [falling, partial curve]","14.1 µM [falling, partial curve]"
CCN(CC)C(=O)CSc1ncnc2c1cnn2-c1ccccc1,,"7.94 µM [rising, partial curve]"
Cc1nc2ccn(Cc3cccs3)c(=O)c2cc1C(=O)N1CCN(c2ccc(F)cc2)CC1,"14.1 µM [falling, partial curve, poor fit]","22.4 µM [falling, partial curve, poor fit]"
CCN(CC(=O)NC(C)C)C(=O)C(CCSC)NC(=O)c1ccccc1OC (stereo unspecified),"0.0891 µM [rising, full curve, poor fit]",
CC1(C)CC(=O)/C(=C\c2cccc([N+](=O)[O-])c2)C(C)(C)N1,,"15.8 µM [rising, single point]"

# Reformatted: 4 of the compounds above.
Compound	AC50 [1]	AC50 [2]
CCN(CC)N=Nc1[nH]nc2nc(C)cc(C)c12	10 µM [falling, partial curve, poor fit]	
CCC(=O)Nc1ccccc1C(=O)N1CCN(Cc2ccccc2)CC1		0.708 µM [falling, full curve, poor fit]
Cc1cc(C(=O)CSc2nnc(-c3ccc4c(c3)OCO4)o2)c(C)n1-c1ccc(F)cc1	0.0224 µM [falling, full curve, poor fit]	0.282 µM [falling, partial curve]
CCN(CC)C(=O)CSc1ncnc2c1cnn2-c1ccccc1		7.94 µM [rising, partial curve]

# Carrying on:

Compound,AC50 [1],AC50 [2]
CCCSc1ncccc1C(=O)O,"0.0447 µM [rising, full curve, poor fit]",
Cc1cccc(OCC(=O)Nc2cc(C)c(C)cc2O)c1,,"6.31 µM [rising, single point]"
CCCN(CCC)S(=O)(=O)c1ccc(C(=O)NNc2nc(-c3ccccc3)c3cc(Br)ccc3n2)cc1,,"11.2 µM [rising, partial curve, poor fit]"
CC(=O)Nc1nc2ccccc2[nH]1,"0.355 µM [rising, full curve, poor fit]","1.12 µM [rising, partial curve]"
CCCCCCCCOC(=O)c1nc(Cl)c(Cl)c(N)c1Cl,"10 µM [rising, partial curve]","8.91 µM [rising, partial curve, poor fit]"
N#CC(c1ccc(F)cc1)c1ccc(C(=O)c2ccccc2)cc1 (stereo unspecified),"8.91 µM [rising, partial curve, poor fit]","17.8 µM [rising, single point]"
CCOC(=O)c1c(/N=C/N(C)C)sc(/C=N/Nc2ccccc2)c1-c1ccc(Cl)cc1,"17.8 µM [rising, partial curve, poor fit]",
COc1ccc2cc(N=Cc3nc(-c4ccc(C)cc4)oc3O)cnc2c1,"4.47 µM [rising, partial curve, poor fit]",
CCOc1cc2[nH]c(=S)n(CCN3CCCCC3C)c(=O)c2cc1OCC (stereo unspecified),,"1.26 µM [falling, single point]"
Clc1ccc(-c2nnc3cccc(Cl)n23)c(Cl)c1,"35.5 µM [rising, single point]","31.6 µM [rising, single point]"
COc1ccccc1NC(=O)Nc1ccc(CC#N)cc1,"0.316 µM [falling, partial curve, poor fit]",
OC[C@@H](O)[C@@H](O)[C@H](O)[C@H](O)CO,"35.5 µM [rising, single point]","35.5 µM [rising, single point]"
O=C(Nc1ccc(Cc2ccncc2)cc1)C1CCC(N2C(=O)C3C4C=CC(C4)C3C2=O)CC1 (stereo unspecified),"35.5 µM [rising, single point]","22.4 µM [rising, single point]"
CCOC(=O)C1=C(C)OC(N)=C(C#N)C1c1ccc(C)s1 (stereo unspecified),"35.5 µM [rising, single point]",
O=C(NCc1ccc(F)cc1)c1ccc(CS(=O)(=O)c2ccc(Cl)cc2)o1,"0.00631 µM [falling, full curve, poor fit]",
CCCCCCCCCC(=O)Nc1cccnc1,,"2.82 µM [falling, partial curve, poor fit]"
CC(=O)N[C@@H](Cc1ccc(O)cc1)C(=O)O,"35.5 µM [falling, single point]",
COC(=O)CCCCNC(=O)Nc1ccccc1,,"22.4 µM [rising, single point]"
CCOC(=O)c1ccc(NC(=S)Nc2cc(C)cc(C)n2)cc1,"8.91 µM [rising, partial curve, poor fit]",

Compound,AC50 [1],AC50 [2]
Cn1cccc1CC(=O)NNC(=O)Nc1ccc(Cl)cc1,,"1.58 µM [falling, partial curve]"
N#Cc1ccsc1NC(=O)COC(=O)c1cc2ccccc2cc1O,"22.4 µM [rising, single point]",
COc1ccc(C(=O)N[C@H](C(=O)Nc2nc3c(s2)CCCC3)C(C)C)cc1,,"25.1 µM [rising, partial curve]"
COc1ccc(/C=C/C(=O)OCC(=O)NCc2ccco2)cc1OC,,"11.2 µM [rising, partial curve]"
CC(C)c1ccc(C(=O)N(c2ccccn2)C(C)c2ccco2)cc1 (stereo unspecified),,"35.5 µM [rising, single point]"
CC1(C)CCC=[N+]1[O-],"6.31 µM [falling, partial curve, poor fit]",
COCCCNc1nc2c(c(=O)n(C)c(=O)n2C)n1Cc1cccc(OC)c1,,"17.8 µM [rising, single point]"
Cc1nn(-c2ccc([N+](=O)[O-])cc2)c2c1C(c1cccc(Br)c1)N1C(=N2)C(=O)Nc2ccccc21 (stereo unspecified),,"2.24 µM [rising, full curve]"
CCCCc1c(O)nc(SCC(=O)O)[nH]c1=O,,"35.5 µM [falling, single point]"
CCOc1ccc(NC(=O)CN2C(=O)S/C(=C/c3cccn3C)C2=O)cc1,"35.5 µM [falling, partial curve, poor fit]",
CCC(CC)C(=O)NC12CC3CC(CC(C3)C1)C2,"0.1 µM [falling, full curve, poor fit]",
CC(C)CCNC(=O)NC(=O)COC(=O)/C=C/c1cc(Br)ccc1F,,"0.158 µM [falling, full curve]"
COc1cccc(-c2cncnc2-n2ccnc2)c1,"6.31 µM [rising, full curve, poor fit]","12.6 µM [rising, partial curve, poor fit]"
CSc1nc(N2CCN(c3ccccc3)CC2)cc(N2CCN(c3ccccc3)CC2)n1,"0.708 µM [falling, partial curve, poor fit]",
Cc1ccc(S(=O)(=O)N(C)CCCC(=O)Nc2cccc3ccccc23)cc1,,"25.1 µM [rising, single point]"
Cn1c(Cn2nnc3ccccc32)nnc1SCC(=O)N1c2ccccc2CCc2ccccc21,"7.08 µM [rising, full curve, poor fit]",
Cc1cc(C)c(-c2csc(NC(=O)/C=C/c3cccs3)n2)c(C)c1,"4.47 µM [rising, partial curve]","3.55 µM [rising, partial curve]"
Cc1cccc(Cn2ncc(Cl)c(Cl)c2=O)c1,,"25.1 µM [falling, single point]"
COc1ccccc1C(=O)NCc1ccc2c(c1)CCN2C(=O)c1cccc(C)c1,"20 µM [falling, partial curve]","35.5 µM [falling, partial curve, poor fit]"
